Values quoted from earlier work as cited in patent publication US7678833B2 (Allium Vitalis Incorporated, priority 2006, dated 2010).
At least one compound was matched to its structure with a doubt left.

Details: daily dosage of 1000 mg, multiple myeloma patients; cited from earlier work

For `O=C1O[C@H]([C@@H](O)CO)C(O)=C1O` [vitamin C], the “glutathione depletion, mean percentage decrease” value is given as 60%.
